Reference: the supplement of paper PMC10338343
± gives the standard deviation. The list shows a part of the results. Many entries were measured with a wide error.

The sequences below were run on EfPiwi piRISC loaded with L1MC piRNA (26 nt) (assay: pre-steady-state target cleavage rate (min^-1); guide: L1MC piRNA 5'p-UAACUAAAUACUAUGCAAGCUGUAGG; MIWI and MILI are mouse PIWI proteins and EfPiwi is from a freshwater sponge; tags in brackets are library labels; higher = faster piRNA-guided slicing of the target). Details: auxiliary factor: 500 nM Ephydatia muelleri Gtsf1.
Summary of the method: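 Cleave-'n-Seq: a transcribed, DNA-blocked target RNA library (0.1 nM) was mixed with 1 nM active affinity-purified piRISC carrying one synthetic guide, with or without 500 nM GTSF1 partner protein, in HEPES–potassium acetate buffer at 33 °C for 0–8 or 0–960 min. Uncleaved targets were sequenced and normalised to depth and to weakly complementary targets. Three trials were pooled, and k3 was capped at 0.0001 min^-1. The pre-steady-state cleavage rate came from a burst-and-steady-state fit.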

| Sequence | pre-steady-state target cleavage rate |
| --- | --- |
| UCCUGGAUGUCGAACCAUAGUUUUAGUUA | < 0.0001 |
| UCCUCCUACAGCAUCCAUAGUAUUUAGUUA | 0.00359 ± 0.0017 |
| UCCUGCUACAGCUUGGUUAGUAUUUACAAA | 0.000461 ± 0.0082 |
| UCCUGGUACAGCUUGCAUAGUAUAUACAAA | 0.00182 ± 0.003 |
| UCCUGCUACAGCUUGCAUAGUUAAUACAAA | 0.00254 ± 0.0059 |
| UCCUCCUACAGCUAGCAUAGUAUUUAGAAA | 0.00378 ± 0.0016 |
| UCCUGGAUGAGCUUCCAUAGUAUUUACAAA | 0.000774 ± 0.0034 |
| UCCUGGAACAGCUUGCAUAGUUAUUACAAA | 0.00269 ± 0.0038 |
| UCCUGGAUCAGCUUGCAUGUAUUUAGUUA | 0.0021 ± 0.0044 |
| UCCUGGAUGUCCUUCCAUAGUAUUUAGAUA | 0.000376 ± 0.009 |
| UCCUGGAUGUCGUUGCAUAGUAUUAAGUUA | 0.00229 ± 0.0039 |
| UCCUGGAUGUGCUUGCAUAGUAUUAAGAAA | 0.00125 ± 0.0034 |
| UCCUGGAUGUGCUUGCAUAGUUUUAAGUUA | 0.00172 ± 0.005 |
| UCCUGGAACAGCUUGCAUAGUAAUAAGUUA | 0.00229 ± 0.0024 |
| UCCUCCUACAGCUUGCAUAGUAUGUAGUUA | 0.00354 ± 0.0013 |
| UCCUGCUACAGGUUGCAUAGUAUUUACAAA | 0.00244 ± 0.0017 |
| UCCUCCUACAGCUUGCAAUGUAUUUAGAAA | 0.0022 ± 0.0043 |
| UCCUGGAUGUCGAACCAUUCAAUUUAGUUA | < 0.0001 |
| UCCUGGAACAGCUUGCAUACAUUUUAGUAA | 0.000465 ± 0.0064 |
| UCCUCCUACAGCUUCCAUAGUAUUUAGAAA | 0.00369 ± 0.0018 |

| Sequence | pre-steady-state target cleavage rate |
| --- | --- |
| UCCUGGUACAGCUUGCAUAGAUAUUACAAA | 0.000405 ± 0.014 |
| UCCUCCUACAGCUUGGUUAGUAUUUUCAAA | 0.00157 ± 0.004 |
| UCCUGGUACAGCAACCAUAGUAUUUACAAA | 0.000291 ± 0.014 |
| UCCUGGAUCAGCUACCAUAGUAUUUACAAA | 0.00131 ± 0.0072 |
| UCCUGGAACAGCUUGCAUAGUAUUUGUUA | 0.00531 ± 0.0019 |
| UCCUGGAUCAGCUUGCAUAGAUUUUAGAAA | 0.0011 ± 0.0029 |
| UCCUGGUACAGCUUGCAUAGUAUAAAGAAA | 0.00202 ± 0.0038 |
| UCCUGGAACAGCUUGCAUUCAAUUUAGUAA | 0.000564 ± 0.0048 |
| UCCUGGAUCAGGUUGCAUAGUAUUUUCAAA | 0.00129 ± 0.0035 |
| UCCUGGUACAGCUUGCAUAGUAAUUUCAAA | 0.0014 ± 0.0035 |
| UCCUCCUACAGGAAGCAUAGUAUUUAGAAA | 0.00203 ± 0.0023 |
| UCCUGGAUGAGCUUGCAUAGUUAAUAGAAA | 0.00189 ± 0.0055 |
| UCCUGGAUGUCGAAGCAAAGAAUUUAGUUA | 0.000167 ± 0.021 |
| UCCUGGAACAGCUUGCUUAGUAUUUUCAAA | 0.000764 ± 0.0048 |
| UCCUCCUACAGCUUGCAGUAGUAUUUAGUUA | 0.00539 ± 0.0033 |
| UCCUGGAUGUCGAUGCAUAGUAUUUAGUCUA | 0.00144 ± 0.0045 |
| UCCUGGAUGAGCUUGGUAAGUAUUUAGUAA | 0.000782 ± 0.0086 |
| UCCUGCUACAGCUUGCAUAGUAAUUAGAAA | 0.00362 ± 0.0016 |
| UCCUGGAUGUCGAAGCAUUCAAUUUAGUUA | 0.000274 ± 0.0081 |

2 neighbouring entries out of the list so far, quoted:

| Sequence | pre-steady-state target cleavage rate |
| --- | --- |
| UCCUGGUACAGCAACCAUAGUAUUUACAAA | 0.000291 ± 0.014 |
| UCCUGGAUCAGCUACCAUAGUAUUUACAAA | 0.00131 ± 0.0072 |
